US10689622B2, “Culture medium for proliferating stem cell, which contains sulfated compound” (AJINOMOTO CO., INC., priority 2012, dated 2020)
Some results were stated once for a whole list of compounds, not compound by compound.

Protein sequences, listed by entry. Tags and fused reporters are not part of them. Residues count along the entry.
UniProt P09038, 143-288: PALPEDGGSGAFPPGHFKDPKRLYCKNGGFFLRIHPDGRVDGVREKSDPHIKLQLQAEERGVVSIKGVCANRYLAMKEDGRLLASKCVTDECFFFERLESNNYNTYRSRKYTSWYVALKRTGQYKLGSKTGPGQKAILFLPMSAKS

Molecular target: T1, bFGF (Homo sapiens, UniProt P09038)
T1 construct: purchased Lonza (via TAKARA BIO INC.) Ser. No. 00/190,632
Assay: Evaluation of bFGF stabilization in Lonza serum-free medium (ELISA)
Format: biochemical
Description: A test compound was dissolved in phosphate buffered saline, and diluted 10-fold with a serum-free medium to adjust to the concentrations shown in Table 4 (test sample). The test sample was left standing in a tightly sealed Falcon tube at 37° C. for 7 days (Tables 5 to 8-2) or 3 days (Table 8-3), and the bFGF concentration was quantified by ELISA measurement. A phosphate buffered saline without a test compound was diluted 10-fold with a serum-free medium, and left standing at 37° C. or 4° C. for 7 days or 3 days, and used as a control.
A commercially available measurement kit (human bFGF ELISA kit, ELH-bFGF-001, Ray Biotech) was used for quantification of bFGF in the medium. The measurement procedures followed the protocol attached to the kit. The bFGF concentration of the serum-free medium was calculated from the analytical curve (conversion formula) drawn from the absorbance of an analytical curve standard solution. […]
A test compound was dissolved in phosphate buffered saline, and diluted 10-fold with a serum-free medium to adjust to the concentrations shown in Table 13 (test sample). The test sample was left standing in a tightly sealed Falcon tube at 37° C. for 7 days, and the bFGF concentration was quantified by ELISA measurement. […]
A commercially available measurement kit (human bFGF ELISA kit, ELH-bFGF-001, Ray Biotech) was used for quantification of bFGF in the medium. […]

xylitol SO3Na
concentration showing a suppressive effect on a decrease in the bFGF concentration of the medium (Lonza serum-free medium, 37° C. for 7 days): not less than 250 μg/ml | concentration at which a decrease in the protein amount of FGF is not suppressed (as shown in the Examples (methods of Examples I-1 and II-1)): not more than 2.5 μg/ml
